Results are given in words; binding and its absence hold for the method and conditions named. Some entries that bind do so weakly or less than the wild type.

Amino acid sequences for entries named in this document (tags omitted). Residues count along the entry.
UniProt O75581, residues 20-325: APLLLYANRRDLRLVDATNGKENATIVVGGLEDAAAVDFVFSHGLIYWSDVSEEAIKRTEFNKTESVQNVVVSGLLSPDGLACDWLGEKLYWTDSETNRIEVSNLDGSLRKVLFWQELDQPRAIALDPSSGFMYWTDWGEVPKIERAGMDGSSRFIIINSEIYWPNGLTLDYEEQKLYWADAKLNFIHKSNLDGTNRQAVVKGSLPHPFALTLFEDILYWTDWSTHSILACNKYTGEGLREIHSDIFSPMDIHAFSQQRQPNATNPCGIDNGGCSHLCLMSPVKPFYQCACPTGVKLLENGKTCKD

The test addresses human LRP6 construct E1 (amino acids A20-D325) (human) (UniProt O75581). As to the kind of experiment: synthetic peptides, competition IC50 (FIG. 19).

Take SNSVKFYA (N-terminal acetyl; C-terminal amide) [Ac-SNSIKFYA-am with Val in place of Ile]: the binding result is reported as “binds”.

For the origin of these results see patent US20140235820A1, “METHODS AND COMPOSITIONS FOR MODULATING THE Wnt PATHWAY” (Genentech, Inc., priority 2010, published 2014).
